According to paper PMC10897393, “Cellular reprogramming in vivo initiated by SOX4 pioneer factor activity”:
No constants are given. Whether binding was seen depends on the method and setting. In cells and extracts the contact can be indirect. Some results given as binding are weak or reduced against the parent protein; the word gives no strength.

Amino acid sequences for entries named in this document (tags omitted). A change or cut given only in a name is not applied to a line headed by its entry.
UniProt Q06831: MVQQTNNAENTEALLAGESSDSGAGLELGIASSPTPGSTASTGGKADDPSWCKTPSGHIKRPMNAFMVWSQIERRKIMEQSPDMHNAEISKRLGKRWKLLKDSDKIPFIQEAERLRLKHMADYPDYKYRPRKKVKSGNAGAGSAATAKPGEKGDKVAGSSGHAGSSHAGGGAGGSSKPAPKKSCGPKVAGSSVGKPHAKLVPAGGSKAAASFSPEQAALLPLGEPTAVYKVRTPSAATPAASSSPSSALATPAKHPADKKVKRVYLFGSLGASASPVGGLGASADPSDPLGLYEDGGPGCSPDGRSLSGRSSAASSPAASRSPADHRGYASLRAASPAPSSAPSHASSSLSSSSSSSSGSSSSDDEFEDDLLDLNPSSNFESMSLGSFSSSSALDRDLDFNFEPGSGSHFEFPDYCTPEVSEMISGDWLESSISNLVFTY
UniProt O09106: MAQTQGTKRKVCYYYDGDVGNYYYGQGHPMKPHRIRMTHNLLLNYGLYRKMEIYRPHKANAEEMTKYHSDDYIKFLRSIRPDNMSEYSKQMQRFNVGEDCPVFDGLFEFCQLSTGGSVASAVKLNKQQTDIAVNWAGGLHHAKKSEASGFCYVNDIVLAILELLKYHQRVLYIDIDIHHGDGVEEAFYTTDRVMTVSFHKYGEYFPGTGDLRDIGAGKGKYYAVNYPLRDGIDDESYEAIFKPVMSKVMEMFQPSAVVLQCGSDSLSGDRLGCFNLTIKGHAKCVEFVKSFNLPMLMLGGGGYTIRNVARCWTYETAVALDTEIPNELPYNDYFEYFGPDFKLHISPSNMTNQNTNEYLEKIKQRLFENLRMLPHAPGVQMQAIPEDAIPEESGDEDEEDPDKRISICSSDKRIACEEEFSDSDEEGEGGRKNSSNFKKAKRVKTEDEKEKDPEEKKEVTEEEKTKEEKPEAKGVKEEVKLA

Molecular target: HA-tagged SOX4 (mouse), ectopically expressed in hepatocytes from AAV8-TBG-HA-Sox4-P2A-Cre (mouse) (UniProt Q06831)
Experiment: co-IP; anti-HA magnetic beads on 500 ug lysate of hepatocytes from AAV8-TBG-HA-Sox4-P2A-Cre-injected mice (2 dpi); AAV8-EV hepatocytes as negative control; lysis in 50 mM Tris pH 7.5, 150 mM NaCl, 0.1% NP-40, 5 mM EDTA, sonicated; RT 30 min; 5 washes in TBS-T; blots with anti-HDAC1, 2 or 3

HDAC1 (from UniProt O09106 1-482)
binding: binds
